Laboratory results reported in the supplement of paper PMC7238544.
Structures can show the parent of a compound that is named as a salt. ± gives the standard deviation of the averaged measurements. The list shows a part of the results. The data scatter; read single values as rough.

Assays:
hAMSC donor 1 [1] = assay: Hoechst total cell count ratio vs vehicle control; higher = more cells (less toxicity)
hAMSC donor 2 [2] = assay: as above
hAMSC donor 1 [3] = assay: transgenic luciferase activity (RLU/mg protein) fold change vs vehicle control (ratio); higher = more transgene expression
hAMSC donor 2 [4] = assay: as above
hAMSC donor 1 [5] = assay: transfection efficiency (EGFP+ cells / Hoechst count) fold change vs vehicle control (ratio); hAMSC are human adipose-derived mesenchymal stem cells given an EGFP-luciferase plasmid by lipofection; higher = enhanced transfection
hAMSC donor 2 [6] = assay: as above
[7] = priming compound concentration 0.2 µM
[8] = priming compound concentration 1.7 µM
[9] = priming compound concentration 13 µM

Structure (SMILES) | Hoechst total cell count ratio (hAMSC donor 1 [1]; [7]) | Hoechst total cell count ratio (hAMSC donor 1 [1]; [8]) | Hoechst total cell count ratio (hAMSC donor 1 [1]; [9]) | Hoechst total cell count ratio (hAMSC donor 2 [2]; [7]) | Hoechst total cell count ratio (hAMSC donor 2 [2]; [8]) | Hoechst total cell count ratio (hAMSC donor 2 [2]; [9]) | transgenic luciferase activity (hAMSC donor 1 [3]; [8]) | transgenic luciferase activity (hAMSC donor 1 [3]; [9]) | transgenic luciferase activity (hAMSC donor 2 [4]; [7]) | transgenic luciferase activity (hAMSC donor 2 [4]; [8]) | transgenic luciferase activity (hAMSC donor 2 [4]; [9]) | transfection efficiency (hAMSC donor 1 [5]; [7]) | transfection efficiency (hAMSC donor 1 [5]; [8]) | transfection efficiency (hAMSC donor 1 [5]; [9]) | transfection efficiency (hAMSC donor 2 [6]; [7]) | transfection efficiency (hAMSC donor 2 [6]; [8]) | transfection efficiency (hAMSC donor 2 [6]; [9]) | transgenic luciferase activity (hAMSC donor 1 [3]; [7])
CCC(=O)NS(=O)(=O)c1ccc(-c2c(-c3ccccc3)noc2C)cc1 [Parecoxib sodium] | 1.13 ± 0.19 | 1.23 ± 0.021 | 1.16 ± 0.068 | 1.17 ± 0.11 | 1.25 ± 0.042 | 1.22 ± 0.15 | 1.02 ± 0.24 | 1.13 ± 0.44 | 0.607 ± 0.04 | 0.673 ± 0.06 | 0.85 ± 0.19 | 1.06 ± 0.46 | 1.15 ± 0.31 | 1.11 ± 0.077 | 0.903 ± 0.08 | 0.998 ± 0.083 | 1.13 ± 0.18 | 
CC(=O)NS(=O)(=O)c1ccc(N)cc1 [Sulfacetamide] | 1.01 ± 0.09 | 1.23 ± 0.016 | 1.12 ± 0.14 | 0.991 ± 0.29 | 1.29 ± 0.069 | 0.968 ± 0.22 | 1.1 ± 0.19 |  | 0.928 ± 0.28 | 0.975 ± 0.34 | 0.996 ± 0.39 | 2.09 ± 0.76 | 1.23 ± 0.11 | 1.03 ± 0.27 | 1.12 ± 0.17 | 1.13 ± 0.1 | 1.71 ± 0.51 | 0.957 ± 0.47
CC(=O)CCCCn1cnc2c1c(=O)n(C)c(=O)n2C [Lomifylline] | 1.11 ± 0.098 | 1.04 ± 0.064 | 1.43 ± 0.098 | 1.3 ± 0.15 | 1.14 ± 0.14 | 1.24 ± 0.17 | 0.509 ± 0.34 |  | 0.931 ± 0.12 | 0.731 ± 0.071 | 0.65 ± 0.13 | 1.1 ± 0.16 | 1.61 ± 0.73 | 0.746 ± 0.23 | 1.02 ± 0.054 | 1.24 ± 0.1 | 1.17 ± 0.15 | 0.718 ± 0.3
O=C1CC2(CCCC2)CC(=O)N1CCNCC1COc2ccccc2O1 (stereo unspecified) | 1.38 ± 0.061 | 1.26 ± 0.1 | 1.37 ± 0.098 | 1.02 ± 0.075 | 1.34 ± 0.05 | 0.967 ± 0.089 | 1.83 ± 1.5 |  | 0.626 ± 0.046 | 0.753 ± 0.042 | 0.958 ± 0.07 | 0.92 ± 0.1 | 0.927 ± 0.13 | 1.13 ± 0.14 | 1.12 ± 0.29 | 0.789 ± 0.035 | 1.35 ± 0.19 | 0.512 ± 0.18
CC(C)NCC(O)c1cc(O)cc(O)c1 (stereo unspecified) [Metaproterenol] | 1.18 ± 0.2 | 1.16 ± 0.1 | 1.33 ± 0.17 | 1.04 ± 0.044 | 1.31 ± 0.039 | 1.08 ± 0.17 | 1.56 ± 0.43 |  | 0.835 ± 0.079 | 0.745 ± 0.032 | 0.825 ± 0.15 | 1.27 ± 0.24 | 0.873 ± 0.21 | 0.969 ± 0.17 | 1.18 ± 0.36 | 0.927 ± 0.042 | 0.948 ± 0.22 | 0.796 ± 0.29
COc1cc(NC(C)CCCN)c2ncccc2c1 (stereo unspecified) [Primaquine diphosphate] | 1.08 ± 0.044 | 1.01 ± 0.11 | 1.02 ± 0.071 | 1.04 ± 0.12 | 0.982 ± 0.14 | 0.886 ± 0.079 | 0.997 ± 0.39 |  | 0.647 ± 0.22 | 1.18 ± 0.23 | 0.357 ± 0.094 | 0.839 ± 0.15 | 1.69 ± 0.89 | 0.509 ± 0.099 | 0.992 ± 0.31 | 1.14 ± 0.096 | 0.853 ± 0.14 | 0.56 ± 0.3
CC(C(O)c1ccc(O)cc1)N1CCC(Cc2ccccc2)CC1 (stereo unspecified) [Ifenprodil hemitartrate] | 1.34 ± 0.11 | 1.11 ± 0.24 | 1.26 ± 0.15 | 1.14 ± 0.058 | 1.36 ± 0.09 | 1.16 ± 0.1 | 1.03 ± 0.58 | 0.482 ± 0.19 | 0.395 ± 0.035 | 0.838 ± 0.062 | 0.69 ± 0.11 | 1.28 ± 0.29 | 1.16 ± 0.2 | 0.992 ± 0.23 | 0.679 ± 0.1 | 0.907 ± 0.09 | 1.03 ± 0.18 | 
CC1Cc2ccccc2N1NC(=O)c1ccc(Cl)c(S(N)(=O)=O)c1 (stereo unspecified) [Indapamide] | 1.15 ± 0.14 | 1 ± 0.043 | 1.02 ± 0.059 | 1.3 ± 0.11 | 1.17 ± 0.027 | 1.27 ± 0.14 | 0.291 ± 0.057 | 1.1 ± 0.72 | 1.1 ± 0.42 | 0.663 ± 0.35 | 0.485 ± 0.17 | 0.724 ± 0.12 | 2.61 ± 1.7 | 0.81 ± 0.15 | 0.871 ± 0.039 | 0.945 ± 0.16 | 0.821 ± 0.062 | 
C[N+](C)(C)C[C@H](O)CC(=O)[O-] [L-Carnitine inner salt] | 1.35 ± 0.044 | 1.24 ± 0.027 | 1.22 ± 0.034 | 1.1 ± 0.035 | 1.09 ± 0.098 | 1.17 ± 0.22 | 0.255 ± 0.058 | 1.09 ± 0.46 | 0.924 ± 0.19 | 0.905 ± 0.17 | 0.784 ± 0.052 | 0.87 ± 0.21 | 1.78 ± 1.5 | 0.955 ± 0.19 | 1.11 ± 0.43 | 1.14 ± 0.19 | 1.03 ± 0.18 | 
CCN(CC)CC#CCOC(=O)C(O)(c1ccccc1)C1CCCCC1 (stereo unspecified) [Oxybutynin hydrochloride] | 1.44 ± 0.073 | 1.08 ± 0.093 | 1.29 ± 0.16 | 0.986 ± 0.034 | 1.02 ± 0.062 | 1.32 ± 0.11 | 0.655 ± 0.081 | 0.388 ± 0.11 | 1.31 ± 0.61 | 0.664 ± 0.12 | 0.509 ± 0.1 | 1.08 ± 0.022 | 1.25 ± 0.083 | 1.4 ± 0.14 | 0.869 ± 0.047 | 0.958 ± 0.044 | 0.778 ± 0.077 | 
OC[C@H]1O[C@@H](n2cnc3c(N[C@H]4CCC[C@@H]4O)ncnc32)[C@H](O)[C@@H]1O | 1.45 ± 0.15 | 1.31 ± 0.12 | 1.31 ± 0.27 | 1.14 ± 0.083 | 1.31 ± 0.059 | 1.16 ± 0.09 | 2.06 ± 0.21 |  | 0.686 ± 0.041 | 0.965 ± 0.17 | 1.77 ± 0.34 | 1.01 ± 0.18 | 0.9 ± 0.15 | 1.05 ± 0.15 | 1.01 ± 0.086 | 0.902 ± 0.084 | 1.67 ± 0.29 | 0.545 ± 0.054
Nc1nc(F)nc2c1ncn2[C@@H]1O[C@H](CO)[C@@H](O)[C@@H]1O [Fludarabine] | 1.55 ± 0.077 | 1.17 ± 0.17 | 1.46 ± 0.11 | 1.14 ± 0.09 | 1.13 ± 0.088 | 1.2 ± 0.25 | 0.836 ± 0.14 | 0.567 ± 0.22 | 0.853 ± 0.036 | 0.53 ± 0.17 | 0.656 ± 0.23 | 0.719 ± 0.051 | 1.13 ± 0.36 | 0.903 ± 0.27 | 0.895 ± 0.1 | 0.868 ± 0.063 | 0.942 ± 0.17 | 
CN(C)CCOc1ccc(/C(=C(/CCCl)c2ccccc2)c2ccccc2)cc1 [Toremifene citrate] | 1.11 ± 0.085 | 1.23 ± 0.18 | 1.34 ± 0.043 | 1.1 ± 0.16 | 0.989 ± 0.14 | 1.31 ± 0.073 | 0.256 ± 0.033 | 0.522 ± 0.16 | 1.24 ± 0.17 | 0.573 ± 0.15 | 0.485 ± 0.032 | 0.897 ± 0.013 | 1.17 ± 0.17 | 0.789 ± 0.19 | 1.05 ± 0.12 | 1.2 ± 0.22 | 0.742 ± 0.11 | 
